These are yes or no findings as the source states them, for the method shown. Binding seen in cells or lysates may run through a third protein. These calls come from enrichment with a bait or labelling near it, and not all partners need be listed.
Experiments:
[1] = target: Oct4 (Pou5f1) (mouse (endogenous in 46C ESCs)) (UniProt P20263); assay: affinity purification with mass spectrometry; immunoprecipitation of endogenous Oct4 (antibody sc-8628 cross-linked to protein G Sepharose) from 1 ml 46C ESC nuclear extract, Benzonase, washes with C-100*, 4°C, boiled in SDS-loading dye; control goat IgG
[2] = target: FLAG-Oct4 (F-Oct4) (mouse) (UniProt P20263); assay: affinity purification with mass spectrometry; FLAG-affinity purification of F-Oct4 from 1.5 ml ESC nuclear extract on anti-FLAG M2 agarose, buffer C-100 (20 mM HEPES pH 7.6, 100 mM KCl), washes with 0.02% NP-40, Benzonase, 4°C, FLAG peptide elution; three purifications; control ZHBTc4 extract

Protein sequences, listed by entry. Tags and fused reporters are not part of them.
UniProt P20263: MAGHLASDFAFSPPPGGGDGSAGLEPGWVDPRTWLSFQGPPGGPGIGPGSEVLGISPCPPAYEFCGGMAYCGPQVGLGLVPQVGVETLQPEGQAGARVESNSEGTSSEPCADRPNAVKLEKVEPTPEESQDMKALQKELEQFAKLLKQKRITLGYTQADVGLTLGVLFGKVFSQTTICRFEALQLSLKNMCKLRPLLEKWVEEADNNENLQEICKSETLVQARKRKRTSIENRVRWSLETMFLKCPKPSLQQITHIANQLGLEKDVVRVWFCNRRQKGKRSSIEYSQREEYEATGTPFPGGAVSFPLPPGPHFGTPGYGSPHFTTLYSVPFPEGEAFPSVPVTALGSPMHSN

Binder | binding [1] | binding [2]
Smc1a (protein, UniProt Q9CU62 1-1233) MGFLKLIEIENFKSYKGRQIIGPFQRFTAIIGPNGSGKSNLMDAISFVLGEKTSNLRVKTLRDLIHGAPVGKPAANRAFVSMVYSEEGAEDRTFARVIVGGSSEYKINNKVVQLHEYSEELEKLGILIKARNFLVFQGAVESIAMKNPKERTALFEEISRSGELAQEYDKRKKEMVKAEEDTQFNYHRKKNIAAERKEAKQEKEEADRYQRLKDEVVRAQVQLQLFKLYHNEVEIEKLNKELASKNKEIEKDKKRMDKVEDELKEKKKELGKMMREQQQIEKEIKEKDSELNQKRPQYIKAKENTSHKIKKLEAAKKSLQNAQKHYKKRKGDMDELEKEMLSVEKARQEFEERMEEESQSQGRDLTLEENQVKKYHRLKEEASKRAATLAQELEKFNRDQKADQDRLDLEERKKVETEAKIKQKLREIEENQKRIEKLEEYITTSKQSLEEQKKLEGELTEEVEMAKRRIDEINKELNQVMEQLGDARIDRQESSRQQRKAEIMESIKRLYPGSVYGRLIDLCQPTQKKYQIAVTKVLGKNMDAIIVDSEKTGRDCIQYIKEQRGEPETFLPLDYLEVKPTDEKLRELKGAKLVIDVIRYEPPHIKKALQYACGNALVCDNVEDARRIAFGGHQRHKTVALDGTLFQKSGVISGGASDLKAKARRWDEKAVDKLKEKKERLTEELKEQMKAKRKEAELRQVQSQAHGLQMRLKYSQSDLEQTKTRHLALNLQEKSKLESELANFGPRINDIKRIIQSREREMKDLKEKMNQVEDEVFEEFCREIGVRNIREFEEEKVKRQNEIAKKRLEFENQKTRLGIQLDFEKNQLKEDQDKVHMWEQTVKKDENEIEKLKKEEQRHMKIIDETMAQLQDLKNQHLAKKSEVNDKNHEMEEIRKKLGGANKEMTHLQKEVTAIETKLEQKRSDRHNLLQACKMQDIKLPLSKGTMDDISQEEGSSQGEESVSGSQRTSSIYAREALIEIDYGDLCEDLKDAQAEEEIKQEMNTLQQKLNEQQSVLQRIAAPNMKAMEKLESVRDKFQETSDEFEAARKRAKKAKQAFEQIKKERFDRFNACFESVATNIDEIYKALSRNSSAQAFLGPENPEEPYLDGINYNCVAPGKRFRPMDNLSGGEKTVAALALLFAIHSYKPAPFFVLDEIDAALDNTNIGKVANYIKEQSTCNFQAIVISLKEEFYTKAESLIGVYPEQGDCVISKVLTFDLTKYPDANPNPNEQ |  | binds
Arid3b (protein, UniProt Q9Z1N7 1-568) MEPLQQQQQQQQQKQPQQPLLQMDAREKQGPQTRESQFLYASKLGTQPALLSITPGRPSGSSVLGPLARVPPATPVARMSEQSNVNSEPEEEEGGLEDEDGDDDVAEVAEKEAQAASKYFHMQKVTRQEPRATPMSSLLPVPGLSPQGQQTKEDHTKDASKAPPSVPTAGQPSWSLDEQLKQNGALAWSDDADGGRGREISRDFAKLYELDGDPERKEFLDDLFIFMQKRGTPINRIPIMAKQILDLYMLYKLVTEKGGLVEIINKKIWREITKGLNLPTSITSAAFTLRTQYMKYLYAYECEKKALSSPAELQAAIDGNRREGRRPSYSSSLFGYSPAAAAAAAAAAAAAAASAASAGTPALLSSPKIRFSILGLGSSSGTSASSPRIPPASTLRKGDGVPVPVPNRLAVSGTLAGQQAGNRPGPLEHLRERLESGEPPEKKASRLSEEEQRLVQQAFQRNLFSMARQLPMKIRINGREDRAEPSAPALNLTTSNIGSINMSVDIDGTTYTGVLFAQKPVVHLIAGSTPQSIGSSASSSNSSSSHCSPSPTSSRGTPSAEPSTSWSL | binds | binds
Rybp (protein, UniProt Q8CCI5 1-228) MTMGDKKSPTRPKRQAKPAADEGFWDCSVCTFRNSAEAFKCSICDVRKGTSTRKPRINSQLVAQQVAQQYATPPPPKKEKKEKVEKPDKEKPEKDKDISPSVTKKNTNKKTKPKSDILKDPPSEANSIQSANATTKTSETNHTSRPRLKNVDRSTAQQLAVTVGNVTVIITDFKEKTRSSSTSSSTVTSSAGSEQQNQSSSGSESTDKGSSRSSTPKGDMSAVNDESF | binds | binds
Phc1 (protein, UniProt Q64028 1-1010) METESEQNSSSTNGSSSSGASSRPQIAQMSLYERQAVQALQALQRQPNAAQYFHQFMLQQQLSNAQLHSLAAVQQATIAASRQASSPNSSTAQQQTATTQASMNLATTSAAQLISRSQSVSSPSATTLTQSVLLGNTTSPPLNQSQAQMYLRPQLGNLLQVNRTLGRNVPLASQLILMPNGAVAAVQQEVPPAQSPGVHADADQVQNLAVRNQQASAQGPQMPGSTQKAIPPGASPVSGLSQTSSQALAVAQASSGASGQSLNLSQAGGGSGNSLPGSMGPGGGGQAPGGLGQLPSSGLTGGSCPRKGTGVVQPLPAAQTVTVSQGSQTEAESAAAKKAEADGSGQQSVGMNLTRTATPAPSQTLISSATYTQIQPHSLIQQQQQIHLQQKQVVIQQQIAIHHQQQFQHRQSQLLHTATHLQLAQQQQQQQQQQQQQQQQQQQQQQGTTLTAPQPPQVPPTQQVPPSQSQQQAQTLVVQPMLQSSPLTLPPEPTSKPPIPIQSKPPVAPIKPPQLGAAKMSATQQPPPHIPVQVVGTRQPGSAQAQALGLAQLAAAVPTPRGITGAVQPGQAHLASSPPSSQAAPGALQECPPALAAGMTLAPVQGTAHVVKGGPTASSPVVAQVPAAFYMQSVHLPGKAQTLAVKRKAESEEERDDLSALASVLPTKASPAAESPKVIEEKNSLGEKAEPVASLNANPPNSDLVALAPTPSAPPPTLALVSRQMGDSKPPQAIVKPQILTHIIEGFVIQEGAEPFPVGCSQFLKETKKPLQAGLPTGLNESQPSGPLGGDSPSVELEKKANLLKCEYCGKYAPAEQFRGSKRFCSMTCAKRYNVSCSHQFRLKRKKMKEFQEASYARVRRRGPRRSSSDIARAKIQGKRHRGQEDSSRGSDNSSYDEALSPTSPGPLSVRAGHGERDLGNTITTPSTPELQGINPVFLSSNPSQWSVEEVYEFIASLQGCQEIAEEFRSQEIDGQALLLLKEEHLMSAMNIKLGPALKICAKINVLKET |  | binds

Further lines, results first:

binding [1] | binding [2] | Binder
binds | binds | Zfp219 (protein, UniProt Q6IQX8 1-726) MEGSRPRILVGHLEPSPPAFDGELDLQRYSNGPGVSGTPGPGSPGMGAVGWSETRAGERRFPCPVCGKRFRFNSILALHLRAHPGAQAFQCPHCGHRAAQRALLRSHLRTHQPERPRSPAARLLLELEERALLREARLGRARSSGGMQSSPAAEGLARPQVPSSSAFRCPFCKGKFRTSAERERHLHILHRPWKCSLCSFGSSQEEELLHHSLTAHGASERPLAATSTPEPPPPPQQEPRSALEPEPEPEPRPEPDREANPAPTPAPPEEPPAPPEFRCQVCGQSFTQSWFLKGHMRKHKASFDHACPVCGRCFKEPWFLKNHMKVHTSKLGPLRAPGPGSAPARAPQPPDLSLLAYEPLGPALLLAPAPAPAERREPPSLLGYLSVRAGEVRPNGEGADPGGGRSYGGFRPLPSALPNRARRHRTEEPEEEEEVVEAEEESWARGRSLGSLTSLHPNPGEGSGQPAPAAGTQARSTATQEENGLLVGGTRSEAGRGATGKDCPFCGKSFRSAHHLKVHLRVHTGERPYKCPHCDYAGTQSGSLKYHLQRHHREQRSSAGPGPPPEPPPPSQRGSLQPQSGAKPTQASATWVEGTASTRPPSSSTGPGSRRKPASPGRTLRNGRGGEAEPLDLSLRAGPGGEAGAGGALHRCLFCPFATGAPELMALHLQVHHSRRARGRRQPRADTSPTYVRAPSGETPPSPPLEEEGSPGLSRSGEAGLGGQER
 | binds | Zcchc8 (protein, UniProt Q9CYA6 1-709) MAAGVDFGDLELFEAFDPPEESTPKPVHTRFKDDEEEEDDDDDENGVGDAELQEQLRRCEATIEQLRAENQELKRKLNILTRPSGILVSNTKIDGPLLQILFMNNAISKQYHQEIEEFVSNLVKRFEEQQKNDVEKTSFSLLPQPSSVMLEEDHKVEESCAVKNNKEAFSVVGSVLYFTNFCLDKLGQPLLNENPQLTEGWEIPKYQQVFSHIVPLEGQEMQVKAKRPKPHCFNCGSEEHQMKECPMPRNAARISEKRKEYMDACGEASGQSFQQRYHAEEVEERFGRFKPGVISEELQDALGVTDKSLPPFIYRMRQLGYPPGWLKEAELENSGLALYDGNDDADGETETGEIQNKNVTYDLSKLVNYPGFNISTPRGIPDEWRMFGSIPMQACQQKDVFASYLNSNIQSPSMRSSGKRSSSQSSPNSPKKQRKEGSAAASPADMELDSDVEIPPGSQSSKAFQFQPPLPPGTPPPLPQGTPPPLFTPPLPKGTPPLTPSDSPQARPAASAMDEDALTLEELEEQQRQIWAALQQAEGGNGDSDVPGDTPLTGNSVASSPCPNEFDLPVPEGKALEKPVLAEPQEPAASVDTAGPEPSCSPAAGAAVLSQREEEAAAEGGPGDALLDNGGVLNMNMSNGSNQQPIHPDSRPPMAPKTHSPVPDMSKFATGITPFEFENMAESTGMYLRIRNLLKNSPRNQQKNKKTCE
 | binds | Zmym2 (protein, UniProt Q9CU65 1-1376) MDTSSVGTLELTDQTPVLLGSTAMATSLTNVGNSFSGPPNPLVSRSSKFQNSSVEDDDDVVFIEPVQPPPSSAPLVADQRPITFTSSKNEELQGNDPKILPSSKELAPQKGSVSETIVIDDEEDMETNQGQEKSSSNFIERRPSETKNRTNDVDFSSSTFSRSKVNAGVSNSGITTEPDSEIQIANVTTLETGVSSVSDGQLESTDGRDMNLMITHVTSLHNTSLGDGSNGLQSSNFGVNIQTYTPSLTSQTKAGVGPFNPGRMNVAGDVFQNGESAPHHNPDSWISQSASFPRNQKQQGVDSLSPVASLPKQIFQPSNQQPTKPVKVTCANCKKPLQKGQTAYQRKGSAHLFCSTTCLSSFSHKPAPKKLCVMCKKDITTMKGTIVAQVDSSESFQEFCSTSCLSLYEDKQSPAKGALNKSRCTICGKLTEIRHEVSFKNMTHKLCSDHCFNRYRMANGLIMNCCEQCGEYLPSKGAGNNVLVVDGQQKRFCCQSCVTEYKQVGSHPSFLKEVRDHMQDSFLMQPEKYGKLTTCTGCRTQCRFFDMTQCIGPNGYMEPYCSTACMNSHKTKYAKSQSLGIICHFCKRNSLPQYQATMPDGKLYNFCNSSCVAKFQALSMQSSPNGQFVAPSDIQLKCNYCKNSFCSKPEILEWENKVHQFCSKTCSDDYKKLHCIVTYCEYCQEEKTLHETVNFSGVKRPFCSEGCKLLYKQDFARRLGLRCVTCNYCSQLCKKGATKELDGVVRDFCSEDCCKKFQEWYYKAARCDCCKSQGTLKERVQWRGEMKHFCDQHCLLRFYCQQNEPNMTTQKGPENLHYDQGCQTSRTKMTGSAPPPSPTPNKEMKNKAILCKPLTMTKATYCKPHMQTKSCQTDENWKTEYVPVPIPVPVYVPVPMHMYSQNIPVPTTVPVPVPVPVFLPAPLDSSEKIPATVEDLKSKVSSDPLDSELLTMTDMMTEEEGKAEASNINSVIIETDIIGSDLTKNSDPDIQSNMPDVPYEPDLDIEIDFPRAAEELDMENEFLLPPVFGEEYEEQPRPRSKKKGTKRKAVSGYQSHDDSSDNSECSFPFKYTYGVNAWKHWVKTRQLDEDLLVLDELKSSKSVKLKEDLLSHTTAELNYGLAHFVNEIRRPNGENYAPDSIYYLCLGIQEYLCGSNRKDNIFIDPGYQMFEQELNKILRSWQPSILPDGSIFSRVEEDYLWRIKQLGSHSPVALLNTLFYFNTKYFGLKTVEQHLRLSFGTVFRHWKKNPLTMENKACLRYQVSSLCGTDNEDKIATGKRKHEDDEPVFEQVENTANPSRCPVKMFECYLSKSPQNLNQRMDVFYLQPECSSSTDSPVWYTSTSLDRNTLENMLVRVLLVKDIYDKDNYELDEDTD
